Source: patent publication US20210214440A1
Results are given in words; binding and its absence hold for the method and conditions named.

B1: CD8B312 (antibody, human IgG1, kappa, V domains shown)
VH: QVQLQQPGADLVKPGASVKLSCKASGYTFTSFWMHWVKQRPGQGLEWIGNVDPSDSQTHYNQKFKDKATLTVDKSSNTAYMQLSSLTSEDSAVYYCARSTYYRYDGPFTYWGQGTTVTVSS
VL: DIVLTQSPATLSVTPGDSVSLSCRASQSINNNLHWYQQKSHESPRLLIKYTSQSISGIPSRFSGSGSGPDFTLSINSVETEDFGMYFCQQSNSWPLTFGGGTKLEIKR
B2: CD8B182 (antibody, human IgG1, kappa, V domains shown)
VH: EVQLQQSGAALAKPGTSVKMSCKASGYTFTSYWMNWVRQRPGQGLEWIGAVNPTNYYTEYIQKFKDKAILTADKSSSTAYMHLSGLTSEDSAVYYCARSGLYNTNHLAWFAYWGQGTTVTVSS
VL: DIKMTQSPASLSASVGETVTITCRASENIHNYLAWYQQIQGKSPQLLVYNAKTLANGVPSRFSGSASGTQFSLTINSLQPEDFGSYYCQHFWTTPLTFGAGTKLELKR
B3: CD8B350 (antibody, human IgG1, kappa, V domains shown)
VH: EVQLQQSGAELAKPGTSVKMSCKASGYTFAAYWINWLKQRPGQGLEWIGSINPSNGYTEYSQKFKDKAILTADKSSSTAYMQLSSLTSEDSAVYYCSRSGLYYTNHLAWCPYWGQGTTVTVSS
VL: DIVMTQSPASLSASVGETVTITCRASGNIHNYLAWYQQKQGKSPQVLVYNAETLADSVPSRFSGSGSGTQFSLKINSLQPEDFGNYYCQHFWNSPLTFGGGTKLEIKR
B4: CD8B268 (antibody, human IgG1, kappa, V domains shown)
VH: QVQLQQSGAELVKPGASVKLSCKASGYTFTVYTIHWVKQRSGQGLEWIGWFYPGSGNIKYNEKFKDKATLTADKSSHTVYMELSRLTSEDSAVYFCARHEDNHYYDGNSWFAYWGQGTLVTVSA
VL: DIQMTQSPASLSASVGQTVTITCRASGNIHNYLAWFQQKQGKSPQLLVYNAKTLADGVPSRFSGSGSGTQYSLKINSLQTEDFGNYYCQHFWNTPYTFGGGTKLEIKR
B5: CD8B246 (antibody, human IgG1, kappa, V domains shown)
VH: QVQLKESGPGILKPSQTLSLTCSFSGFSLSTSGMNVGWIRQPSGKGLEWLAHIWWDDDKYYNPSLKSQLTISKDTSRNQVFLKITSVDTADTATYYCARRGNYGNYEFAYWGQGTTLTVSS
VL: DIQMTQTTSSLSASLGDRVTISCRASQDIRNYLNWYQQKPDGTVKLLIYHTSRLHSGVPSRFSGSGSGTDYSLTISNLEQEDIATYFCQQGNTLPWTFGAGTKLELKR
B6: CD8B304 (antibody, human IgG1, kappa, V domains shown)
VH: QVTLKESGPGILKPSQTLSLTCSFSGFSLSTSGMNVGWIRQPSGKGLEWLAHIWWDDDKYYNPSLKSQLTISKDTSRNQVFLKITSVDTADTATYYCARRGNYGNYEFAYWGQGTTVTVSS
VL: DIQMTQTTSSLSASLGDRVTISCRASQDIRNYLNWYQQKPDGTVKLLIYHTSRLHSGVPSRFSGSGSGTDYSLTISNLDQEDIATYFCQQGNTLPWTFGAGTKLELKR
B7: CD8B356 (antibody, human IgG1, kappa, V domains shown)
VH: DVQLQESGPGLVKPSQSLSLTCSVTGYSITSGYYWNWIRQFPGNKLEWMGYISYDGSNNYNPSLKNRISITRDTSKNQFFLKLNSVTTEDTATYYCVRNHGDAMDYWGQGTSVTVSS
VL: DIVLTQSQKFMSTTVGDRVSITCKASQNVGTAVAWYQQKPGQSPKLLIYSASYRYTGVPDRFTGSGSGTHFTLTISNMQSEDLADYFCQQYSSYLTFGSGTKLEIKR
B8: CD8B303 (antibody, human IgG1, kappa, V domains shown)
VH: QVQLKESGPGLVAPSQSLSITCTVSGFSLSIYSIHWVRQPPGKGLEWLGMIWGGGSTDYNSTLNSRLSIIKDNSKSQVFLKMNSLQTDDTAMYYCARNPHHYGGSTGAMDYWGQGTTVTVSS
VL: DVQMIQSPSSLSASLGGTVTITCKASQDIKKYMAWYQHKPGKGPRLLIHYTSSLQPGIPSRFSGSGSGRDYYFSISNLEPEDIATYFCLQYDNLFTFGSGTKLELKR

What follows are binders tested against Human CD8αα fused to human Fc (human) (assay: SPR Biacore 8K, mAb captured, single cycle kinetics).

binding, no binding (tested: 100 nM):
B1
B2
B3
B4
B5
B6
B7
B8
